Test results as given in PubChem BioAssay AID540256 (National Center for Advancing Translational Sciences (NCATS), 2011).
In all, about 300,000 compounds went through this assay and about 3,700 (1.2%) were called active. The shares of active, inactive and inconclusive entries below differ from those in the screen. Calls follow the shape of the full dose curve; tested in HEK293 cells. Where the call is inconclusive, the potency comes from a doubtful curve fit.

assay: qHTS for Inhibitors of binding or entry into cells for Lassa Virus; conditions: Lassa virus pseudotype entry inhibition, cell reporter; series mostly up to 37.9 µM; also: nearly all actives have a fitted effect of over 50% in size
Potency is read from the fitted curve at half-maximal effect.

| Structure (SMILES) | Potency |
| --- | --- |
| COc1ccc(-c2nc3sc(CCNS(=O)(=O)c4ccc(F)c(C)c4)c(C)n3n2)cc1 | inconclusive: 10 µM [inhibitor, partial curve, poor fit] |
| CC(C)n1c(CCCO)nc2ccccc21 | inconclusive: 20.6 µM [activator, partial curve] |
| COc1ccc(CNC(=O)c2c(O)c3cccc4c3n(c2=O)CCC4)cc1OC | inactive |
| COc1ccc(N2CC(NC(=O)c3ccc(OC(C)C)cc3)CC2=O)cc1 (configuration not stated) | inactive |
| OCCNCc1cc(Br)ccc1OCc1ccccc1Cl | inactive |
| CCN(CC)c1ccc(S(=O)(=O)N2CCOCC2)cc1NC(=O)CN1CCc2ccccc2C1 | inconclusive: 35.5 µM [inhibitor, single point] |
| COc1ccc(C(=O)/C=C/Nc2ccc(C)cn2)cc1OC | inconclusive: 1.3 µM [activator, partial curve, poor fit] |
| CC(C)c1ccccc1OCC(O)CN(CC(O)COc1cccc2ccccc12)C(C)C (configuration not stated) | inconclusive: 35.5 µM [inhibitor, partial curve, poor fit] |
| COC(=O)c1[nH]c(C)c(/C(O)=C2\C(=O)C(=O)N(CCCN3CCOCC3)C2c2ccccn2)c1C (configuration not stated) | inactive |
| N#CC1=C(N)Oc2ccc3ccccc3c2C1c1cccnc1 (configuration not stated) | inconclusive: 7.3 µM [inhibitor, partial curve] |
| CCOC(=O)c1c(CSc2ccc(C)cc2)oc2ccc(O)cc12 | inconclusive: 20.6 µM [inhibitor, single point] |
| C=CCOC(=O)N[C@H](c1ccc(-c2ccccc2)cc1)[C@H](C)C=CCC(=O)OC | inconclusive: 0.003 µM [inhibitor, full curve, poor fit] |
| CCN(c1ccccc1)S(=O)(=O)c1ccc2[nH]cc(C(=O)NCc3ccc(C)cc3)c(=O)c2c1 | inconclusive: 3.98 µM [inhibitor, full curve, poor fit] |
| N#Cc1cc2c(nc1SCC(=O)Nc1cccc(F)c1)C1CCN2CC1 | inactive |
| CCc1cc(CNC(=O)C2CCC(=O)N(Cc3cccc(F)c3)C2)on1 (configuration not stated) | inconclusive: 0.631 µM [inhibitor, full curve, poor fit] |
| CN(C)CC1CSCCC1(O)c1ccc(C(F)(F)F)cc1 (configuration not stated) | inconclusive: 1.26 µM [inhibitor, partial curve, poor fit] |
| Nc1ccc(S(=O)(=O)NN=CC=Cc2ccccc2[N+](=O)[O-])cc1 | inconclusive: 12.6 µM [inhibitor, partial curve, poor fit] |
| O=C(NCc1ccco1)c1cc(S(=O)(=O)N2CCCc3ccccc32)ccc1Cl | inconclusive: 2.24 µM [inhibitor, partial curve, poor fit] |
| O=C(COC(=O)CNS(=O)(=O)c1cccc(Br)c1)Nc1ccccc1Sc1ccccc1 | inactive |
| Cc1c(C(=O)O)sc2nc(C)n(C)c(=O)c12 | inconclusive: 1.83 µM [activator, partial curve, poor fit] |
| c1c2c(cc3sc(N4CCCCC4)nc13)OCO2 | active: 6.31 µM |

| Structure (SMILES) | Potency |
| --- | --- |
| CN1CCN(S(=O)(=O)c2ccc(NC(=O)c3cccc(F)c3)cc2)CC1 | inconclusive: 0.631 µM [activator, single point] |
| O=C1CC(NN2CCCCC2)C(=O)N1c1ccccc1 (configuration not stated) | inconclusive: 0.891 µM [inhibitor, single point] |
| CC1=CC(C)(C)N2C(=O)C3(N=C(N)NC(Nc4ccccc4)=N3)c3cc(C)cc1c32 (configuration not stated) | inconclusive: 14.1 µM [inhibitor, partial curve, poor fit] |
| Fc1ccc2nc(C(F)(F)F)cc(N3CCOCC3)c2c1 | inconclusive: 2.82 µM [activator, full curve, poor fit] |
| CC1CCN(Cc2c(C(=O)N/N=C/c3cccc(C(F)(F)F)c3)nnn2-c2nonc2N)CC1 | inconclusive: 2.51 µM [inhibitor, full curve, poor fit] |
| Cc1nonc1NCn1nnc2ccccc21 | inconclusive: 20 µM [activator, partial curve, poor fit] |
| Cc1ccc(C(=O)N/N=C/C=C/c2ccccc2)cc1 | inactive |
| O=C(NCc1ccccc1)C(c1cccs1)N(Cc1cccs1)C(=O)c1cnccn1 (configuration not stated) | inconclusive: 20.6 µM [inhibitor, partial curve, poor fit] |
| O=C(c1ccccc1)n1nc(-c2ccco2)nc1NCc1ccccc1Cl | inactive |
| N#CCP(=S)(c1ccccc1)c1ccccc1 | inconclusive: 0.231 µM [inhibitor, single point] |
| COCCn1c(SCC(=O)Nc2ccc(S(=O)(=O)N(C)C)cc2)nc2ccccc21 | inconclusive: 35.5 µM [inhibitor, single point] |
| COc1cccc(N/C(SCc2cccc([N+](=O)[O-])c2)=C(/C#N)C(=O)NCc2cccs2)c1 | inconclusive: 29.1 µM [inhibitor, single point] |
| CC(C)=CCc1c2c(c3occ(-c4ccc(O)c(O)c4)c(=O)c3c1O)C=CC(C)(C)O2 | active: 15.8 µM |
| Cc1cccnc1NC(=S)NC(=O)c1oc2ccccc2c1C | inactive |
| COc1nc(OC)nc(N2CCC(C(=O)NC3CCCCCC3)CC2)n1 | inactive |
| c1cnn(-c2nc(N3CCOCC3)nc(N3CCOCC3)n2)c1 | inconclusive: 0.164 µM [activator, single point] |
| COc1ccc(N(C(=O)COc2ccccc2OC)S(=O)(=O)c2ccc(Cl)cc2)cc1 | inconclusive: 10 µM [inhibitor, partial curve, poor fit] |
| O=C(/C=C\c1cn(-c2ccccc2)nc1-c1ccccc1)Nc1nccs1 | inconclusive: 35.5 µM [inhibitor, single point] |
| CN(c1ccccc1)S(=O)(=O)c1ccc(NC(=S)NC(=O)C2CC2)cc1 | inconclusive: 25.9 µM [inhibitor, single point] |
| O=C(Nc1cccnc1)c1cc(-c2cccc(Br)c2)nc2ccccc12 | inconclusive: 35.5 µM [inhibitor, single point] |
| O=C(Nc1ccc2c(c1)ncn2C1CCCCC1)c1ccco1 | inactive |
